# According to publication PMC10445738:
# The chains behind the UniProt entries cited, without tags or fusion partners. Where a name states a change or a piece, a line headed by the entry shows the natural chain unless it says otherwise.
# UniProt Q96BN8: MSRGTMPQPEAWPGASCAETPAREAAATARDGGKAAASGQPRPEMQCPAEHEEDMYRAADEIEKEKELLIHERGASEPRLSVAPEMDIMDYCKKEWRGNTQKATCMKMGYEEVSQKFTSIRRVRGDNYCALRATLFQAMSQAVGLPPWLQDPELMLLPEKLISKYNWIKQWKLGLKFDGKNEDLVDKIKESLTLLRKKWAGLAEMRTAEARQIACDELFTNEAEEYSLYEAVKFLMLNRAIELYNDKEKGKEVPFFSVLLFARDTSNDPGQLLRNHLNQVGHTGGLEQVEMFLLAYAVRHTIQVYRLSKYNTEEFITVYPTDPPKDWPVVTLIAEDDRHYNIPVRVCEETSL
# UniProt Q60838: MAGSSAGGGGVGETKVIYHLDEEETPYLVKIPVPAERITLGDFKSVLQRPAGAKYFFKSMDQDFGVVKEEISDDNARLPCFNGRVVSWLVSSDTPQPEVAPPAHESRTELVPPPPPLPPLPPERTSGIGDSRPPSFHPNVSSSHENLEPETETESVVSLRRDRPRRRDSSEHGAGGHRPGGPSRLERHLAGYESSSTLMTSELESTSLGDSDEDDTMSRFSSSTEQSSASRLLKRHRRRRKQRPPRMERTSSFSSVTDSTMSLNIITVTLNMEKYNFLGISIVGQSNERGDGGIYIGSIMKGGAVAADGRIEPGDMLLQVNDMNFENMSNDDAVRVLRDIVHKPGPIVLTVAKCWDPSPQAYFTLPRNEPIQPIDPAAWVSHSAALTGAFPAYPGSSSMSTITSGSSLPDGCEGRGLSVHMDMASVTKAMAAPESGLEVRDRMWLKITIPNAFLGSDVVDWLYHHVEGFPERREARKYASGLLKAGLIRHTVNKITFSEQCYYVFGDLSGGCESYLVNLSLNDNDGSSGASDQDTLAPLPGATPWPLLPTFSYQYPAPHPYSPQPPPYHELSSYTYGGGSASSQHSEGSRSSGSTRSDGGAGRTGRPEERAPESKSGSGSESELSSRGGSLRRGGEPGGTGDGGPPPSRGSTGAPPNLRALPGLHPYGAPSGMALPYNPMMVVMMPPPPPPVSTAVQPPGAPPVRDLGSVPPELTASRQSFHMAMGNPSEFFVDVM
# UniProt Q14160: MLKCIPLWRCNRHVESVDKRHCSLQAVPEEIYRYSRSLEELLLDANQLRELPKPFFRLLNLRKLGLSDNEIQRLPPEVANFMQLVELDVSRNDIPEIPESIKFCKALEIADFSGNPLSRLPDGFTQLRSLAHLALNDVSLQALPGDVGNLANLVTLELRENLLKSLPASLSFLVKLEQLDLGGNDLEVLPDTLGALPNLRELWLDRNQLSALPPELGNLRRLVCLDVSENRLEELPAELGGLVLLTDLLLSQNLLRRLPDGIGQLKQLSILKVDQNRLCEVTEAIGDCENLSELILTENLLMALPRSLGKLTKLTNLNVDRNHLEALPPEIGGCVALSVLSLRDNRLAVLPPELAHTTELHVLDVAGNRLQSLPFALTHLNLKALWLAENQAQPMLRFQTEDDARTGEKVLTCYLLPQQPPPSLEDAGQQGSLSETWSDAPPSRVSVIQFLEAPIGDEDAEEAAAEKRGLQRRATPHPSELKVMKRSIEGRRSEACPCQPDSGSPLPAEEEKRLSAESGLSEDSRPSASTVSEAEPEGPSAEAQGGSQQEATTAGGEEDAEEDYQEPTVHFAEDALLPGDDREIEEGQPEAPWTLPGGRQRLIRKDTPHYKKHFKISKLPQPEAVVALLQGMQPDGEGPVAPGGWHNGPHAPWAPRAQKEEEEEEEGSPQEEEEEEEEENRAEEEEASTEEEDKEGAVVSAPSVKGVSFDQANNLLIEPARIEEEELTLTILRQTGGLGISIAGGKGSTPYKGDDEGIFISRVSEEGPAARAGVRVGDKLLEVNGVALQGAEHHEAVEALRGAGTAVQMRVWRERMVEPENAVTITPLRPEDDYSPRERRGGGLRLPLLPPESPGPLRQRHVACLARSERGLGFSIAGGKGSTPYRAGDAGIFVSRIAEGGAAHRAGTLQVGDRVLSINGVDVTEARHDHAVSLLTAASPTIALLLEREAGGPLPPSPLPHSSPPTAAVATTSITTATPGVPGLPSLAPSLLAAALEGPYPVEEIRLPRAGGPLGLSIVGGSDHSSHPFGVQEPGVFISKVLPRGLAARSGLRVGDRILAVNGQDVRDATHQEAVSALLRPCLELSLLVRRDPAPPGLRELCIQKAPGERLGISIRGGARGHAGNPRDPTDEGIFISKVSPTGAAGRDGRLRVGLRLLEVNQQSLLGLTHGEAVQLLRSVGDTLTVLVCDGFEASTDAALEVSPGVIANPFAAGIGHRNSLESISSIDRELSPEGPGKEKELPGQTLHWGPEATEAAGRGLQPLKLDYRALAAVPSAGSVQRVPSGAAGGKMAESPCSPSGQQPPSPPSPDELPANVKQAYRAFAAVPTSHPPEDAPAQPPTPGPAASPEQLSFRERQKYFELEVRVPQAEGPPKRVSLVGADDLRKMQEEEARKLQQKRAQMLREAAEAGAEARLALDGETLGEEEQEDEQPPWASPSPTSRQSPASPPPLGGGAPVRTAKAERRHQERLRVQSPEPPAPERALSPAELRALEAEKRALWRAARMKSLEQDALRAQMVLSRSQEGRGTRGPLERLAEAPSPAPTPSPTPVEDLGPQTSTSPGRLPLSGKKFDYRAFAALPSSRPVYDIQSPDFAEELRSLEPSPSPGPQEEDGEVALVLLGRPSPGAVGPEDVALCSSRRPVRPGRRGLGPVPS
# Assays:
# [1] = target: FLAG-OTULIN (transiently expressed) (UniProt Q96BN8); test: co-IP; reciprocal co-immunoprecipitation of FLAG-OTULIN and Dvl2 constructs from transfected HEK293T cells; lysis buffer as in a3 with 4 μM MG132 added; immunoblot
# [2] = target: HA-OTULIN^ΔPBM (UniProt Q96BN8); test: co-IP; HA-OTULIN constructs and FLAG-SCRIB transiently co-expressed in HEK293T; lysis in 50 mM Tris pH 7.4, 100 mM EDTA, 150 mM NaCl, 0.5% Triton X-100; IP with anti-FLAG or anti-HA antibody and protein A/G agarose, washes with 500 mM NaCl; immunoblot
binding [1],binding [2],Substance
binds,,Dvl2 lacking the DEP domain (from UniProt Q60838)
binds,,Dvl2 lacking the DIX domain (from UniProt Q60838)
,no binding,FLAG-SCRIB (from UniProt Q14160 1-1655)
binds,,Dvl2 lacking the PDZ domain (from UniProt Q60838)

# These are yes or no findings as the source states them, for the method shown. Binding seen in cells or lysates may run through a third protein. For some of these results: A result given as binding can be weak or reduced; the word gives no strength.
